Results: publication PMC12040169 (PLOS Biology, 2025)
This is one part of the list.

tested on: T1, CTL2-GFP (C. trachomatis L2/434/Bu, GFP-expressing); design: species or system HeLa; Intracellular C. trachomatis growth in HeLa cells, bulk GFP fluorescence relative to DMSO; settings: bulk GFP, single well; 28.5 h, 10 µM; inhibitor
T1 construct: L2/434/Bu, GFP-expressing

Row | Structure (SMILES) | % of control remaining
1 | Cc1ccc(NC(=O)CN2C(=O)N/C(=C\c3cc(Br)cc(Cl)c3O)C2=O)cc1 [CBK265018] | 100%
2 | O=C(Cn1nc(-c2ccco2)ccc1=O)Nc1ccccn1 [CBK287985] | 147.643%
3 | CC(C)(Oc1ccc(Cl)cc1)C(=O)Nc1ccc(CN2CCOCC2)cc1 [CBK269940] | 125.655%
4 | O=C(CCN1C(=O)C2C3CCC(C3)C2C1=O)OCC(=O)c1ccc(Cl)c([N+](=O)[O-])c1 (stereo not drawn) [CBK264124] | 100%
5 | O=C(O)CCC(=O)NCCCc1ccccc1 [CBK265465] | 124.468%
6 | Cc1ccccc1C(=O)N1CCN(S(=O)(=O)c2sc(C(=O)O)c(C)c2C(=O)O)CC1 [CBK297146] | 145.404%
7 | Nc1nc2cccnc2cc1-c1ccsc1 [CBK081214] | 147.685%
8 | Cc1nc(N2CCOCC2)[nH]c(=O)c1CCC(=O)Nc1ccccc1F [CBK305003] | 153.923%
9 | COc1cccc(CNC(=O)c2cn[nH]c2-c2cccc(C)c2)c1 [CBK288056] | 101.322%
10 | CN1CCN(CC(=O)Nc2ccc([N+](=O)[O-])cc2C(=O)c2ccccc2)CC1 [CBK265772] | 164.179%
11 | Cc1noc(C)c1S(=O)(=O)Nc1nc(-c2cccnc2)cs1 [CBK067266] | 114.658%
12 | CN(CC1OCCc2ccccc21)C(=O)CCC1CCCO1 (stereo not drawn) [CBK282030] | 128.002%
13 | O=C1Nc2ccc(S(=O)(=O)NCCCO)c3cccc1c23 [CBK262033] | 100%
14 | O=C(Nc1snnc1-c1ccc(Cl)cc1)c1ccco1 [CBK153242] | 85.0333%
15 | Cc1ccc(NC(=O)CSc2nnc3c4c5c(sc4nc(-n4nc(C)cc4C)n23)COC(C)(C)C5)cc1 [CBK268675] | 136.41%
16 | COc1cncc(-c2cnc3[nH]c(=O)n(C4CCCCC4)c3n2)c1 [CBK064230] | 91.3417%
17 | Cc1cc(N2CCN(CC(=O)c3ccc(Cl)cc3)CC2)c2ccccc2n1 [CBK066868] | 112.554%
18 | COc1ccc(C(=O)O)cc1S(=O)(=O)Nc1c(-c2cccs2)nc2cc(C)ccn12 [CBK297484] | 146.764%
19 | CC(C)Nc1cc(SCCc2ccccn2)ncn1 [CBK105617] | 87.6623%
20 | CCN(CC)CC1CCCN(C(=O)CCn2ccc3ccncc32)C1 (stereo not drawn) [CBK285174] | 149.496%
21 | CCOC(=O)C1=C(CSc2nccn2C)NC(=O)NC1c1ccc2c(c1)OCO2 (stereo not drawn) [CBK268746] | 133.507%
22 | COc1c(I)cc(Br)cc1/C=N/NC(=O)CC#N [CBK025764] | 119.072%
23 | COc1ccnc(N2C[C@@H]3OCC(=O)N(Cc4ccccc4)[C@@H]3C2)n1 [CBK289666] | 96.5115%
24 | CC(=O)OC1CCN(C(=O)c2cccc(C#N)c2)CC1 [CBK304648] | 118.999%
25 | CC(C)c1ccc(NC(=O)CSc2nnc(CN3CCOCC3)n2C)cc1 [CBK268235] | 128.95%
26 | Cc1c(C(c2ccc(C(=O)O)cc2)c2c(C)n(C)n(-c3ccccc3)c2=O)c(=O)n(-c2ccccc2)n1C [CBK261691] | 113.389%

Row | Structure (SMILES) | % of control remaining
27 | CCOC(=O)CC(=O)CSc1nc2nc(C)cc(C)n2n1 [CBK268469] | 126.448%
28 | CC(Oc1ccccc1)c1nnc(SCC(=O)Nc2ccc(Br)c(Cl)c2)n1C (stereo not drawn) [CBK266299] | 90.0498%
29 | O=C(O)CCSc1nnc(-c2cccnc2)n1-c1ccccc1 [CBK268734] | 106.605%
30 | O=C(c1cccc(F)c1)N1CCC(c2n[nH]c3ncccc23)CC1 [CBK284907] | 98.2665%
31 | Cc1cc(O)ccc1-c1cncc(-c2ccc(O)cc2C)n1 [CBK115689] | 122.65%
32 | O=C(c1ccco1)N1CCc2cc(-c3cn4c(n3)CCCC4)ccc21 [CBK282893] | 112.985%
33 | CC(=O)Nc1ccc(CNC(=O)CN(C)CC2CCCCO2)cc1 (stereo not drawn) [CBK306567] | 147.918%
34 | CN(Cc1c(F)cccc1Cl)C(=O)CSc1nc(CC(=O)O)cs1 [CBK296708] | 121.848%
35 | NC(=O)c1ccc(NC(=O)CSc2nnc(-c3ccncc3)n2-c2ccc(Br)cc2)cc1 [CBK266202] | 132.885%
36 | Nc1ncnc2c1nc(N)n2[C@H]1C[C@@H](O)[C@@H](CO)O1 [CBK201222] | 93.3019%
37 | OCc1ccnc2ccccc12 [CBK001746] | 126.074%
38 | CC[C@H]1CN(C(=O)NC(C)C)CC[C@H]1CC(=O)NCc1ccc2c(c1)OCO2 [CBK288775] | 146.754%
39 | C=CCNCc1cc2c(C)nn(-c3ccccc3)c2[nH]c1=O [CBK282898] | 112.607%
40 | CCOc1ccc(C(C)(N)C(=O)O)cc1 (stereo not drawn) [CBK261362] | 78.2081%
41 | COc1ccc2nc(NC(=O)c3cccc(N4C(=O)CCC4=O)c3)sc2c1 [CBK287351] | 124.664%
42 | COc1ccc(-c2c[nH]c([C@@H]3COCCN3Cc3ccccc3O)n2)cc1 [CBK289296] | 113.668%
43 | O=C(Nc1ccc2c(c1)OCO2)c1ccc(-c2ccccc2)nc1NCCc1ccccn1 [CBK076574] | 103.268%
44 | O=C(COc1ccc(-c2cc(-c3ccccc3)c3cc(Cl)ccc3n2)cc1)N/N=C/c1ccc2ncccc2c1 [CBK263365] | 115.623%
45 | O=C(O)CCC(=O)Nc1ccc2c(c1)Cc1ccccc1-2 [CBK286611] | 114.468%
46 | Cc1nc(-c2ccccc2)ccc1C(=O)Nc1nc(CC(N)=O)cs1 [CBK295195] | 129.484%
47 | O=C(/C=C/c1ccc(-c2ccccc2[N+](=O)[O-])o1)Nc1ccc(-c2nc3ncccc3o2)cc1 [CBK263434] | 110.043%
48 | O=C1c2ccccc2C(=O)N1CCCSc1nnc(-c2ccncc2)n1-c1ccccc1 [CBK263419] | 102.347%
49 | CC(C)(C)C1=CC2=NC3(CCCCCC3)[C@@H]3C[C@@H](O)[C@@H](O)[C@@H]3N2O1 [CBK303252] | 132.715%
50 | CC(C)NC(=O)c1sc2ccccc2c1C1CCN(S(=O)(=O)c2ccccc2)C1 (stereo not drawn) [CBK285927] | 92.0966%
51 | Cc1cccc(N(CC(O)CN2C(=O)NC(C)(C)C2=O)S(=O)(=O)c2ccccc2)c1 (stereo not drawn) [CBK263582] | 115.154%
52 | Cc1csc(C(Cc2cccs2)NC(=O)C2CCOCC2)n1 (stereo not drawn) [CBK285006] | 122.887%

Some values from the results shown.
Entry for Cc1nc(N2CCOCC2)[nH]c(=O)c1CCC(=O)Nc1ccccc1F [CBK305003] under % of control remaining: 153.923%
Entry for O=C(Nc1ccc2c(c1)OCO2)c1ccc(-c2ccccc2)nc1NCCc1ccccn1 [CBK076574] under % of control remaining: 103.268%
Entry for CC(=O)Nc1ccc(CNC(=O)CN(C)CC2CCCCO2)cc1 (stereo not drawn) [CBK306567] under % of control remaining: 147.918%
Entry for COc1ccc(C(=O)O)cc1S(=O)(=O)Nc1c(-c2cccs2)nc2cc(C)ccn12 [CBK297484] under % of control remaining: 146.764%
Entry for O=C(c1ccco1)N1CCc2cc(-c3cn4c(n3)CCCC4)ccc21 [CBK282893] under % of control remaining: 112.985%

(cont.)

Row | Structure (SMILES) | % of control remaining
53 | c1ccc(CNc2nnc(-c3ccccc3)s2)cc1 [CBK074928] | 59.2586%
54 | Cc1nc2c(c(=O)[nH]1)CC[C@@H]1CN(C(=O)c3cccs3)C[C@H]21 [CBK284406] | 123.555%
55 | COc1ccc2c(c1)CCCN2C(=O)CCn1ccc(C)n1 [CBK282217] | 104.133%
56 | NCC(=O)N(CCC1CCCC1)c1cccc2ccccc12 [CBK011922C] | 114.205%
57 | CC1CCc2c(sc3ncnc(OCC(=O)N4CCCCC4)c23)C1 (stereo not drawn) [CBK304979] | 94.4638%
58 | COc1ccc(Cl)cc1NC(=O)CC1NC2CCCCC2NC1=O (stereo not drawn) [CBK267318] | 160.607%
59 | Fc1ccccc1CN(CCCn1ccnc1)Cc1ccoc1 [CBK283024] | 121.876%
60 | Cn1ncc2c(NCC(=O)N3CCNCC3)nc(C(C)(C)C)nc21 [CBK307702] | 73.7628%
61 | O=S(=O)(NCCCN1CCN(Cc2ccccc2)CC1)c1cccc(Cl)c1Cl [CBK074655] | 101.823%
62 | COc1nccnc1-c1ccc(SC)cc1 [CBK106795] | 122.998%
63 | COc1ccc(-c2nn(-c3ccccc3)cc2C(=O)Nc2ccc(C(=O)O)cc2)cc1OC [CBK296112] | 138.87%
64 | Cc1ccccc1NC(=O)NC(=O)C1CCN(S(C)(=O)=O)CC1 [CBK034862] | 116.129%
65 | c1ccc2nc(N3CCCC3)c(SCCc3cnccn3)nc2c1 [CBK103695] | 105.445%
66 | CN(CCN(C)/N=C/c1cccc2ccccc12)/N=C/c1cccc2ccccc12 [CBK262153] | 111.194%
67 | COCCCn1c(=O)[nH]c2ncc(-c3cccc(CO)c3)nc21 [CBK065104] | 159.733%
68 | CC(=O)NCC(=O)N1C[C@@H]2CCCCN(Cc3cccc(F)c3)[C@@H]2C1 [CBK285515] | 117.292%
69 | CC(N(C)S(=O)(=O)c1ccc(-n2ncc(Cl)c(Cl)c2=O)cc1)C(C)(C)C (stereo not drawn) [CBK304544] | 75.9275%
70 | CC(NC(=O)CS(=O)(=O)Cc1ccc(C#N)cc1)c1ccc(C#N)cc1 (stereo not drawn) [CBK297791] | 117.076%
71 | Cc1nc2ccccn2c1-c1csc(Nc2cccc(C(=O)O)c2)n1 [CBK263303B] | 123.043%
72 | O=C(Nc1cccc2c(NC(=O)N3CCCCC3)cccc12)N1CCCCC1 [CBK010775] | 19.1934%
73 | CCC(=O)Nc1ccc2oc(-c3cccc(C)c3)nc2c1 [CBK263065] | 100%
74 | O=C(Cc1ccc2c(c1)CCCO2)NCc1ccccc1-n1ccnc1 [CBK281463] | 115.636%
75 | CC[C@H](Cn1c(=O)oc2ccccc21)NC(=O)c1cccs1 [CBK284540] | 153.357%
76 | CN(C(=O)C12CCOCC1CN(c1nccnc1C#N)C2)C1CCCC1 (stereo not drawn) [CBK304244] | 134.948%
77 | CCC(C)NC(=O)Cn1c(C2CCNCC2)cc2cccnc21 (stereo not drawn) [CBK285003] | 95.2459%
78 | CC(C)CC(C(=O)Nc1ccc(C2CCCC2)cc1)N1CCN(C)CC1 (stereo not drawn) [CBK024386C] | 110.193%
